The target in the assay is T1, PDZD8-APEX2, stably expressed in MEFs (not stated (T527 is the human residue number)) (UniProt Q8NEN9).
T1 sequence: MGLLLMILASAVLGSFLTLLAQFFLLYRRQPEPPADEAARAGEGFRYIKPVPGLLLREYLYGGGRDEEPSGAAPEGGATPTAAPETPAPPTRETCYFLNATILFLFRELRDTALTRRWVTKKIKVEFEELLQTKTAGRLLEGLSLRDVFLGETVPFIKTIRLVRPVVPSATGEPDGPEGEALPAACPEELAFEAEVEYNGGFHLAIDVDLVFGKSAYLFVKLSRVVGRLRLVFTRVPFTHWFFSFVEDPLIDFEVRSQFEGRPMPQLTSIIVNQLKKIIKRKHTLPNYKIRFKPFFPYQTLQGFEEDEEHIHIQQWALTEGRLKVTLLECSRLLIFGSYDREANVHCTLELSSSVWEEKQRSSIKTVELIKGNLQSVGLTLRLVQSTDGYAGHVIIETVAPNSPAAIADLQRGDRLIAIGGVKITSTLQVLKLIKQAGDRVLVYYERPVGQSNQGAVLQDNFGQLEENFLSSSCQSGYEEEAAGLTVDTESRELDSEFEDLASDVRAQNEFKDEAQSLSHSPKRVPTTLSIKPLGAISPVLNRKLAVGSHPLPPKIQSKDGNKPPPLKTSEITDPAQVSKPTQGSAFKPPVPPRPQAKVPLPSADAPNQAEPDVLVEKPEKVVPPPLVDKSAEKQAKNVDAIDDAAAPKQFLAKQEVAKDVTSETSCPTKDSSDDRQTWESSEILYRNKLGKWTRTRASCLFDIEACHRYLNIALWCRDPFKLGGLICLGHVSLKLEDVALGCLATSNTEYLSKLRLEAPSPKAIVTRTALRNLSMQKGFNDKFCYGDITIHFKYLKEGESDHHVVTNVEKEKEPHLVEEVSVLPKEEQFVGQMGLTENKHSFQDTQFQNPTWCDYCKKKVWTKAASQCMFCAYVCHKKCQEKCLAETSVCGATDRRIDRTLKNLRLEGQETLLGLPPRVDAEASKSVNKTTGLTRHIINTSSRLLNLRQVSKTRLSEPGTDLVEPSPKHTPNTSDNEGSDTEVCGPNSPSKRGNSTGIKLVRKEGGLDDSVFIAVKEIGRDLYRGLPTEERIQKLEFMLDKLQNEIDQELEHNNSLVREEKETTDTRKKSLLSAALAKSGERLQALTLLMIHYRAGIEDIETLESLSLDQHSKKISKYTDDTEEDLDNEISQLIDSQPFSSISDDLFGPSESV
Description: proximity labelling.

Sequences of proteins named here, by UniProt entry; tags and fusion partners are left off. Residues count along the entry.
UniProt D3Z7P3, residues 55-674: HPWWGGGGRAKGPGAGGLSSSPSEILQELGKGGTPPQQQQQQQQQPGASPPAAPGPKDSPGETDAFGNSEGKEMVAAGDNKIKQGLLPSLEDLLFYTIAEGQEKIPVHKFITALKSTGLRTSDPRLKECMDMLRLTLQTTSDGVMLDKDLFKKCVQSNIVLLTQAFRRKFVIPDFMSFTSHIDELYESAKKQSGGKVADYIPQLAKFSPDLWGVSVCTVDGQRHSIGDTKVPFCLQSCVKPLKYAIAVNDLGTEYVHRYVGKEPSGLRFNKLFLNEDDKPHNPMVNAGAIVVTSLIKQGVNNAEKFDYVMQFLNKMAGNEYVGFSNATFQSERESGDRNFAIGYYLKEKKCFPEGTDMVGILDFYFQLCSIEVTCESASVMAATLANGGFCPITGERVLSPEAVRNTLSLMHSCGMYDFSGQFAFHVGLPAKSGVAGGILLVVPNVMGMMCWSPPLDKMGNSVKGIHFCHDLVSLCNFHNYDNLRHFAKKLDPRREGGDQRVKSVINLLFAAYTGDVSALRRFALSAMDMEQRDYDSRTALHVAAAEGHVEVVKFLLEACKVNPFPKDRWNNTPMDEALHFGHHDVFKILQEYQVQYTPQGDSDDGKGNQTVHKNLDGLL

No constants are given. Whether binding was seen depends on the method and setting. In cells and extracts the contact can be indirect. These calls come from enrichment with a bait or labelling near it, and not all partners need be listed.

As to “glutaminase 1 (GLS1; both KGA and GAC), endogenous in MEFs (from UniProt D3Z7P3 55-674)”, the binding entry is “binds”.

The values are drawn from paper doi:10.1101/2023.07.20.548338.
